Test results as given in paper PMC11241395 (International Journal of Molecular Sciences, 2024).

What was measured:
Type in all cases: cell-based
[1] = system: U-87 (human glioblastoma); assay: MTT cytotoxicity assay, U-87; settings: IC50 for normal cell line (HDF)/IC50 for U-87
Experimental: (§1) This activity was evaluated in vitro using the standard MTT method (enzymatic reduction of 3-[4,5-dimethylthiazole-2-yl]-2,5-diphenyltetrazolium bromide, MTT, to MTT-formazan) based on a viability assay.
(§2) Cytotoxic activity: Human cancer cells SKBR-3 (human breast cancer cell line) and SKOV-3 (ovarian cancer cell line) were cultured in McCoy’s Modified Medium. Human cancer cells PC-3 (human prostate cancer cell line) were cultured in an F-12K medium. The Human Dermal Fibroblast (HDF) cell line was cultured in Fibroblast Basal Medium. The U-87 cell line was cultured in EMEM medium. Each medium was supplemented with 10% foetal bovine serum, 1% L- glutamine, and 1% penicillin/streptomycin solution. The cell lines were kept in an incubator at 37 °C. All the cell lines and mediums were obtained from the American Type Culture Collection (ATCC) supplied by LGC-Standards (Lomianki, Poland).
(§3) The MTT assay was conducted as described earlier.

[2] = system: SKBR-3 (human breast adenocarcinoma); assay: MTT cytotoxicity assay, SKBR-3; settings: IC50 for normal cell line (HDF)/IC50 for SKBR-3
Experimental: as §1, §2, §3

[3] = system: PC-3 (human prostate carcinoma); assay: MTT cytotoxicity assay, PC-3; settings: IC50 for normal cell line (HDF)/IC50 for PC-3
Experimental: as §1, §2, §3

[4] = system: SKOV-3 (human ovarian cystadenocarcinoma); assay: MTT cytotoxicity assay, SKOV-3; settings: IC50 for normal cell line (HDF)/IC50 for SKOV-3
Experimental: as §1, §2, §3

SMILES	SI, U-87 [1]	SI, SKBR-3 [2]	SI, PC-3 [3]	SI, SKOV-3 [4]
CC1(C)CC[C@]2(C(=O)OCCCCCCCCCCOC(=O)[C@]34CCC(C)(C)CC3C3=CCC5[C@@]6(C)CC[C@H](O)C(C)(C)C6CC[C@@]5(C)[C@]3(C)CC4)CC[C@]3(C)C(=CCC4[C@@]5(C)CC[C@H](O)C(C)(C)C5CC[C@]43C)C2C1 (some centres unmarked) [Compound 2l]	1.94	1.94	1.97	1.97
CC1(C)CC[C@]2(C(=O)OCCCCCCCCCCCOC(=O)[C@]34CCC(C)(C)CC3C3=CCC5[C@@]6(C)CC[C@H](O)C(C)(C)C6CC[C@@]5(C)[C@]3(C)CC4)CC[C@]3(C)C(=CCC4[C@@]5(C)CC[C@H](O)C(C)(C)C5CC[C@]43C)C2C1 (some centres unmarked) [Compound 2m]	1.75	1.89	1.90	1.62
CC1(C)CC[C@]2(C(=O)OCCCCCCCCCOC(=O)[C@]34CCC(C)(C)CC3C3=CCC5[C@@]6(C)CC[C@H](O)C(C)(C)C6CC[C@@]5(C)[C@]3(C)CC4)CC[C@]3(C)C(=CCC4[C@@]5(C)CC[C@H](O)C(C)(C)C5CC[C@]43C)C2C1 (some centres unmarked) [Compound 2k]	2.29	2.43	2.43	2.44
CC1(C)CC[C@]2(C(=O)OCOC(=O)[C@]34CCC(C)(C)CC3C3=CCC5[C@@]6(C)CC[C@H](O)C(C)(C)C6CC[C@@]5(C)[C@]3(C)CC4)CC[C@]3(C)C(=CCC4[C@@]5(C)CC[C@H](O)C(C)(C)C5CC[C@]43C)C2C1 (some centres unmarked) [Compound 2a]	1.97	1.66	1.94	1.69
CC1(C)CC[C@]2(C(=O)OCCCCCCCOC(=O)[C@]34CCC(C)(C)CC3C3=CCC5[C@@]6(C)CC[C@H](O)C(C)(C)C6CC[C@@]5(C)[C@]3(C)CC4)CC[C@]3(C)C(=CCC4[C@@]5(C)CC[C@H](O)C(C)(C)C5CC[C@]43C)C2C1 (some centres unmarked) [Compound 2i]	1.76	1.57	1.70	1.46
CC1(C)CC[C@]2(C(=O)OCCOC(=O)[C@]34CCC(C)(C)CC3C3=CCC5[C@@]6(C)CC[C@H](O)C(C)(C)C6CC[C@@]5(C)[C@]3(C)CC4)CC[C@]3(C)C(=CCC4[C@@]5(C)CC[C@H](O)C(C)(C)C5CC[C@]43C)C2C1 (some centres unmarked) [Compound 2b]	1.70	1.68	1.74	1.72
CC1(C)CC[C@]2(C(=O)OCCCCCCCCOC(=O)[C@]34CCC(C)(C)CC3C3=CCC5[C@@]6(C)CC[C@H](O)C(C)(C)C6CC[C@@]5(C)[C@]3(C)CC4)CC[C@]3(C)C(=CCC4[C@@]5(C)CC[C@H](O)C(C)(C)C5CC[C@]43C)C2C1 (some centres unmarked) [Compound 2j]	1.49	1.60	1.63	1.55
CC1(C)CC[C@]2(C(=O)OCCCCCCCCCCCCOC(=O)[C@]34CCC(C)(C)CC3C3=CCC5[C@@]6(C)CC[C@H](O)C(C)(C)C6CC[C@@]5(C)[C@]3(C)CC4)CC[C@]3(C)C(=CCC4[C@@]5(C)CC[C@H](O)C(C)(C)C5CC[C@]43C)C2C1 (some centres unmarked) [Compound 2n]	1.12	1.07	1.05	0.98
CC1(C)CC[C@]2(C(=O)OCCCOC(=O)[C@]34CCC(C)(C)CC3C3=CCC5[C@@]6(C)CC[C@H](O)C(C)(C)C6CC[C@@]5(C)[C@]3(C)CC4)CC[C@]3(C)C(=CCC4[C@@]5(C)CC[C@H](O)C(C)(C)C5CC[C@]43C)C2C1 (some centres unmarked) [Compound 2c]	2.54	2.48	2.56	2.30
CC1(C)CC[C@]2(C(=O)OCCCCCOC(=O)[C@]34CCC(C)(C)CC3C3=CCC5[C@@]6(C)CC[C@H](O)C(C)(C)C6CC[C@@]5(C)[C@]3(C)CC4)CC[C@]3(C)C(=CCC4[C@@]5(C)CC[C@H](O)C(C)(C)C5CC[C@]43C)C2C1 (some centres unmarked) [Compound 2g]	0.63	0.65	0.58	0.65
CC1(C)CC[C@]2(C(=O)OC/C=C\COC(=O)[C@]34CCC(C)(C)CC3C3=CCC5[C@@]6(C)CC[C@H](O)C(C)(C)C6CC[C@@]5(C)[C@]3(C)CC4)CC[C@]3(C)C(=CCC4[C@@]5(C)CC[C@H](O)C(C)(C)C5CC[C@]43C)C2C1 (some centres unmarked) [Compound 2e]	0.98	1.03	1.18	1.28
CC1(C)CC[C@]2(C(=O)OCCCCOC(=O)[C@]34CCC(C)(C)CC3C3=CCC5[C@@]6(C)CC[C@H](O)C(C)(C)C6CC[C@@]5(C)[C@]3(C)CC4)CC[C@]3(C)C(=CCC4[C@@]5(C)CC[C@H](O)C(C)(C)C5CC[C@]43C)C2C1 (some centres unmarked) [Compound 2d]	2.46	2.63	1.80	1.89
CC1(C)CC[C@]2(C(=O)OCCCCCCOC(=O)[C@]34CCC(C)(C)CC3C3=CCC5[C@@]6(C)CC[C@H](O)C(C)(C)C6CC[C@@]5(C)[C@]3(C)CC4)CC[C@]3(C)C(=CCC4[C@@]5(C)CC[C@H](O)C(C)(C)C5CC[C@]43C)C2C1 (some centres unmarked) [Compound 2h]	2.95	2.87	3.24	3.21
CC1(C)CC[C@]2(C(=O)OC/C=C/COC(=O)[C@]34CCC(C)(C)CC3C3=CCC5[C@@]6(C)CC[C@H](O)C(C)(C)C6CC[C@@]5(C)[C@]3(C)CC4)CC[C@]3(C)C(=CCC4[C@@]5(C)CC[C@H](O)C(C)(C)C5CC[C@]43C)C2C1 (some centres unmarked) [Compound 2f]	0.57	0.54	0.54	0.58
